Measured values published in article PMC12496174.
Results are given in words; binding and its absence hold for the method and conditions named. Binding seen in cells or lysates may run through a third protein. Binding can be weak; no strength is given. Where a sequence is shown, tags or fusion partners need not be part of it.

Protein sequences, listed by entry. Tags and fused reporters are not part of them. Lines headed by an entry give the natural chain unless they say otherwise; changes in a name come on top.
UniProt Q7TPB0: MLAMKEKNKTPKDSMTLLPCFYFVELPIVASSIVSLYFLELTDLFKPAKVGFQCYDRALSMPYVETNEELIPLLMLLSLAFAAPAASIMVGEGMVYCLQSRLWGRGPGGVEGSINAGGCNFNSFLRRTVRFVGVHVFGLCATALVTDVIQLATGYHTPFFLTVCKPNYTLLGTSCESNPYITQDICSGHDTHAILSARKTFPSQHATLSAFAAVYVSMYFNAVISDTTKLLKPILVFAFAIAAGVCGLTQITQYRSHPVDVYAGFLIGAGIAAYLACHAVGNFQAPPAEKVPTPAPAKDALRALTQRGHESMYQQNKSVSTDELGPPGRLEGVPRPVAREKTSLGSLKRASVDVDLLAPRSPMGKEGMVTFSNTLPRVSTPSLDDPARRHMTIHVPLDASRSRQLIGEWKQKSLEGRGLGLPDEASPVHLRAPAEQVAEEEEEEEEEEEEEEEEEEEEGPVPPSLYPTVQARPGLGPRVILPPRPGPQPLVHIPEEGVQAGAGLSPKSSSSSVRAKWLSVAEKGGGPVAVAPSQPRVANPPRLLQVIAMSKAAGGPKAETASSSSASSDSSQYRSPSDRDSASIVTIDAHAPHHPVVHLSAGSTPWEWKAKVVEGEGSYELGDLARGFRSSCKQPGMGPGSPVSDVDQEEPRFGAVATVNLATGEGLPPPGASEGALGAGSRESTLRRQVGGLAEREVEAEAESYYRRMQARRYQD

Biological target: T1, BASP1-turboGFP (UniProt Q91XV3)
T1 sequence: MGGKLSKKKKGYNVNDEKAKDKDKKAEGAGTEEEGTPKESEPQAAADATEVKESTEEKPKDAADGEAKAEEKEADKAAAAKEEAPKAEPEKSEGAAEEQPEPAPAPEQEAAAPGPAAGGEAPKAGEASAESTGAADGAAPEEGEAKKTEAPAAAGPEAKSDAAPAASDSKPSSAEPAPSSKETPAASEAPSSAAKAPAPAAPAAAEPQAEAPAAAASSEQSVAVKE
Assay: co-IP; HEK293T cells expressing BASP1-tGFP and ICDm-His (or ICDm-S351A); lysis and washes in Ripa buffer; BASP1 immunoprecipitated with turboGFP antibody overnight at 4°C, Dynabeads Protein A; blot for PLPPR3; steady state or 30 uM Forskolin for 10 min

In the case of “PLPPR3 ICDm-His (membrane-tagged intracellular domain of PLPPR3) (from UniProt Q7TPB0) (domain or fragment)”, the binding is reported as “binds”.
